{"source": "the supplement of paper PMC4604168 (melanoma cell lines)", "assay_in_all_cases": "cleaved PARP positive nuclei fraction relative to DMSO control; melanoma cells; higher = more apoptosis", "settings_in_all_cases": "library dose: low library concentration; 72 h", "key": {"WM115": {"test_system": "WM115"}, "WM1716": {"test_system": "WM1716"}, "WM1745": {"test_system": "WM1745"}, "WM3526": {"test_system": "WM3526"}, "WM3619": {"test_system": "WM3619"}, "WM451Lu": {"test_system": "WM451Lu"}}, "note": "Some of the results follow. Repeats are few or missing, and single values can be far off.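 The apoptosis fraction was the count of cleaved-PARP antibody-stained nuclei relative to all DNA-stained nuclei, imaged in 1,536-well plates. Screening doses were set so most cells survived, and baseline and induced cleaved-PARP levels vary greatly across cell lines.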", "data": [{"compound": "Cc1cc(N2CCOCC2)cc2[nH]c(-c3c(NC[C@@H](O)c4cccc(Cl)c4)cc[nH]c3=O)nc12", "note": "+ CN(C)S(=O)(=O)c1ccc2c(c1)/C(=C/c1cc3c([nH]1)CCCC3)C(=O)N2 [SU6656] (first compound 0.2 µM, partner dose 0.4 µM)", "values": [{"measurement": "cleaved PARP positive nuclei fraction", "setting": "WM115", "value": 377, "unit": "%"}, {"measurement": "cleaved PARP positive nuclei fraction", "setting": "WM1716", "value": 117, "unit": "%"}, {"measurement": "cleaved PARP positive nuclei fraction", "setting": "WM1745", "value": 144, "unit": "%"}, {"measurement": "cleaved PARP positive nuclei fraction", "setting": "WM3526", "value": 86.1, "unit": "%"}, {"measurement": "cleaved PARP positive nuclei fraction", "setting": "WM3619", "value": 119, "unit": "%"}, {"measurement": "cleaved PARP positive nuclei fraction", "setting": "WM451Lu", "value": 171, "unit": "%"}]}, {"compound": "CO[C@@H]1[C@H](N(C)C(=O)c2ccccc2)C[C@H]2O[C@]1(C)n1c3ccccc3c3c4c(c5c6ccccc6n2c5c31)C(=O)NC4", "note": "[Midostaurin] + O=C(O)C(=O)Nc1sc2c(c1C(=O)O)CCNC2 [TCS401] (first compound 0.08 µM, partner dose 1.66667 µM)", "values": [{"measurement": "cleaved PARP positive nuclei fraction", "setting": "WM115", "value": 47.3, "unit": "%"}, {"measurement": "cleaved PARP positive nuclei fraction", "setting": "WM1716", "value": 124, "unit": "%"}, {"measurement": "cleaved PARP positive nuclei fraction", "setting": "WM1745", "value": 103, "unit": "%"}, {"measurement": "cleaved PARP positive nuclei fraction", "setting": "WM3526", "value": 33.5, "unit": "%"}, {"measurement": "cleaved PARP positive nuclei fraction", "setting": "WM3619", "value": 79.5, "unit": "%"}, {"measurement": "cleaved PARP positive nuclei fraction", "setting": "WM451Lu", "value": 107, "unit": "%"}]}, {"compound": "Cc1nc(Nc2ncc(C(=O)Nc3c(C)cccc3Cl)s2)cc(N2CCN(CCO)CC2)n1", "note": "[dasatanib] + O=C(O)C(=O)Nc1sc2c(c1C(=O)O)CCNC2 [TCS401] (first compound 0.004 µM, partner dose 1.66667 µM)", "values": [{"measurement": "cleaved PARP positive nuclei fraction", "setting": "WM115", "value": 202, "unit": "%"}, {"measurement": "cleaved PARP positive nuclei fraction", "setting": "WM1716", "value": 162, "unit": "%"}, {"measurement": "cleaved PARP positive nuclei fraction", "setting": "WM1745", "value": 185, "unit": "%"}, {"measurement": "cleaved PARP positive nuclei fraction", "setting": "WM3526", "value": 74, "unit": "%"}, {"measurement": "cleaved PARP positive nuclei fraction", "setting": "WM3619", "value": 123, "unit": "%"}, {"measurement": "cleaved PARP positive nuclei fraction", "setting": "WM451Lu", "value": 99.3, "unit": "%"}]}, {"compound": "CC(=O)c1c(C)c2cnc(Nc3ccc(N4CCNCC4)cn3)nc2n(C2CCCC2)c1=O", "note": "[palbociclib] + Oc1nc(-c2ccc(C(F)(F)F)cc2)nc2c1CSCC2 [XAV939] (first compound 0.04 µM, partner dose 2 µM)", "values": [{"measurement": "cleaved PARP positive nuclei fraction", "setting": "WM115", "value": 170, "unit": "%"}, {"measurement": "cleaved PARP positive nuclei fraction", "setting": "WM1716", "value": 251, "unit": "%"}, {"measurement": "cleaved PARP positive nuclei fraction", "setting": "WM1745", "value": 138, "unit": "%"}, {"measurement": "cleaved PARP positive nuclei fraction", "setting": "WM3526", "value": 127, "unit": "%"}, {"measurement": "cleaved PARP positive nuclei fraction", "setting": "WM3619", "value": 151, "unit": "%"}, {"measurement": "cleaved PARP positive nuclei fraction", "setting": "WM451Lu", "value": 391, "unit": "%"}]}, {"compound": "CC(=O)c1c(C)c2cnc(Nc3ccc(N4CCNCC4)cn3)nc2n(C2CCCC2)c1=O", "note": "[palbociclib] + CC(C)(C)c1cnc(CSc2cnc(NC(=O)C3CCNCC3)s2)o1 [SNS-032] (first compound 0.04 µM, partner dose 0.01 µM)", "values": [{"measurement": "cleaved PARP positive nuclei fraction", "setting": "WM115", "value": 86.4, "unit": "%"}, {"measurement": "cleaved PARP positive nuclei fraction", "setting": "WM1716", "value": 179, "unit": "%"}, {"measurement": "cleaved PARP positive nuclei fraction", "setting": "WM1745", "value": 123, "unit": "%"}, {"measurement": "cleaved PARP positive nuclei fraction", "setting": "WM3526", "value": 107, "unit": "%"}, {"measurement": "cleaved PARP positive nuclei fraction", "setting": "WM3619", "value": 144, "unit": "%"}, {"measurement": "cleaved PARP positive nuclei fraction", "setting": "WM451Lu", "value": 51.7, "unit": "%"}]}, {"compound": "OCCn1cc(-c2cnc3nnn(Cc4ccc5ncccc5c4)c3n2)cn1", "note": "+ O=C(O)c1ccc(-c2c[nH]c3ncc(-c4ccccc4)cc23)cc1C1CCCC1 [GSK650394] (first compound 1 µM, partner dose 0.16 µM)", "values": [{"measurement": "cleaved PARP positive nuclei fraction", "setting": "WM115", "value": 28.6, "unit": "%"}, {"measurement": "cleaved PARP positive nuclei fraction", "setting": "WM1716", "value": 65.8, "unit": "%"}, {"measurement": "cleaved PARP positive nuclei fraction", "setting": "WM1745", "value": 92.3, "unit": "%"}, {"measurement": "cleaved PARP positive nuclei fraction", "setting": "WM3526", "value": 162, "unit": "%"}, {"measurement": "cleaved PARP positive nuclei fraction", "setting": "WM3619", "value": 78.2, "unit": "%"}, {"measurement": "cleaved PARP positive nuclei fraction", "setting": "WM451Lu", "value": 30.1, "unit": "%"}]}, {"compound": "CO[C@@H]1[C@H](N(C)C(=O)c2ccccc2)C[C@H]2O[C@]1(C)n1c3ccccc3c3c4c(c5c6ccccc6n2c5c31)C(=O)NC4", "note": "[Midostaurin] + Cn1cc(/C=C2\\C(=O)Nc3cccnc32)c2ccccc21 [GW441756] (first compound 0.08 µM, partner dose 0.4 µM)", "values": [{"measurement": "cleaved PARP positive nuclei fraction", "setting": "WM115", "value": 97.2, "unit": "%"}, {"measurement": "cleaved PARP positive nuclei fraction", "setting": "WM1716", "value": 166, "unit": "%"}, {"measurement": "cleaved PARP positive nuclei fraction", "setting": "WM1745", "value": 128, "unit": "%"}, {"measurement": "cleaved PARP positive nuclei fraction", "setting": "WM3526", "value": 60.4, "unit": "%"}, {"measurement": "cleaved PARP positive nuclei fraction", "setting": "WM3619", "value": 89.4, "unit": "%"}, {"measurement": "cleaved PARP positive nuclei fraction", "setting": "WM451Lu", "value": 120, "unit": "%"}]}, {"compound": "CC(=O)c1c(C)c2cnc(Nc3ccc(N4CCNCC4)cn3)nc2n(C2CCCC2)c1=O", "note": "[palbociclib] + CN(C)S(=O)(=O)c1ccc2c(c1)/C(=C/c1cc3c([nH]1)CCCC3)C(=O)N2 [SU6656] (first compound 0.04 µM, partner dose 0.4 µM)", "values": [{"measurement": "cleaved PARP positive nuclei fraction", "setting": "WM115", "value": 92.8, "unit": "%"}, {"measurement": "cleaved PARP positive nuclei fraction", "setting": "WM1716", "value": 49.1, "unit": "%"}, {"measurement": "cleaved PARP positive nuclei fraction", "setting": "WM1745", "value": 112, "unit": "%"}, {"measurement": "cleaved PARP positive nuclei fraction", "setting": "WM3526", "value": 88.9, "unit": "%"}, {"measurement": "cleaved PARP positive nuclei fraction", "setting": "WM3619", "value": 115, "unit": "%"}, {"measurement": "cleaved PARP positive nuclei fraction", "setting": "WM451Lu", "value": 102, "unit": "%"}]}, {"compound": "Cn1cncc1[C@@](N)(c1ccc(Cl)cc1)c1ccc2c(c1)c(-c1cccc(Cl)c1)cc(=O)n2C", "note": "[tipifarnib] + CCN(CC)CCCCNc1ncc2cc(-c3cc(OC)cc(OC)c3)c(NC(=O)NC(C)(C)C)nc2n1 [PD173074] (first compound 0.01 µM, partner dose 0.1 µM)", "values": [{"measurement": "cleaved PARP positive nuclei fraction", "setting": "WM115", "value": 57.7, "unit": "%"}, {"measurement": "cleaved PARP positive nuclei fraction", "setting": "WM1716", "value": 152, "unit": "%"}, {"measurement": "cleaved PARP positive nuclei fraction", "setting": "WM1745", "value": 101, "unit": "%"}, {"measurement": "cleaved PARP positive nuclei fraction", "setting": "WM3526", "value": 73.5, "unit": "%"}, {"measurement": "cleaved PARP positive nuclei fraction", "setting": "WM3619", "value": 168, "unit": "%"}, {"measurement": "cleaved PARP positive nuclei fraction", "setting": "WM451Lu", "value": 650, "unit": "%"}]}, {"compound": "C=CCNC1=C2C[C@@H](C)C[C@H](OC)[C@H](O)[C@@H](C)/C=C(\\C)[C@H](OC(N)=O)[C@@H](OC)/C=C\\C=C(/C)C(=O)NC(=CC1=O)C2=O", "note": "[Tanespimycin] + CO[C@@H]1[C@H](N(C)C(=O)c2ccccc2)C[C@H]2O[C@]1(C)n1c3ccccc3c3c4c(c5c6ccccc6n2c5c31)C(=O)NC4 [Midostaurin] (first compound 0.002 µM, partner dose 0.08 µM)", "values": [{"measurement": "cleaved PARP positive nuclei fraction", "setting": "WM115", "value": 93.3, "unit": "%"}, {"measurement": "cleaved PARP positive nuclei fraction", "setting": "WM1716", "value": 31.8, "unit": "%"}, {"measurement": "cleaved PARP positive nuclei fraction", "setting": "WM1745", "value": 134, "unit": "%"}, {"measurement": "cleaved PARP positive nuclei fraction", "setting": "WM3526", "value": 168, "unit": "%"}, {"measurement": "cleaved PARP positive nuclei fraction", "setting": "WM3619", "value": 93.7, "unit": "%"}, {"measurement": "cleaved PARP positive nuclei fraction", "setting": "WM451Lu", "value": 140, "unit": "%"}]}, {"compound": "Cn1c(Nc2ccc(C(F)(F)F)cc2)nc2cc(Oc3ccnc(-c4ncc(C(F)(F)F)[nH]4)c3)ccc21", "note": "+ COCC[n+]1c2c(n(Cc3cnccn3)c1C)C(=O)c1ccccc1C2=O [YM155] (first compound 0.08 µM, partner dose 0.0004 µM)", "values": [{"measurement": "cleaved PARP positive nuclei fraction", "setting": "WM115", "value": 261, "unit": "%"}, {"measurement": "cleaved PARP positive nuclei fraction", "setting": "WM1716", "value": 90.2, "unit": "%"}, {"measurement": "cleaved PARP positive nuclei fraction", "setting": "WM1745", "value": 135, "unit": "%"}, {"measurement": "cleaved PARP positive nuclei fraction", "setting": "WM3526", "value": 30.1, "unit": "%"}, {"measurement": "cleaved PARP positive nuclei fraction", "setting": "WM3619", "value": 150, "unit": "%"}, {"measurement": "cleaved PARP positive nuclei fraction", "setting": "WM451Lu", "value": 50.8, "unit": "%"}]}, {"compound": "COCC[n+]1c2c(n(Cc3cnccn3)c1C)C(=O)c1ccccc1C2=O", "note": "+ O=C(O)C(=O)Nc1sc2c(c1C(=O)O)CCNC2 [TCS401] (first compound 0.0004 µM, partner dose 1.66667 µM)", "values": [{"measurement": "cleaved PARP positive nuclei fraction", "setting": "WM115", "value": 212, "unit": "%"}, {"measurement": "cleaved PARP positive nuclei fraction", "setting": "WM1716", "value": 88.9, "unit": "%"}, {"measurement": "cleaved PARP positive nuclei fraction", "setting": "WM1745", "value": 110, "unit": "%"}, {"measurement": "cleaved PARP positive nuclei fraction", "setting": "WM3526", "value": 203, "unit": "%"}, {"measurement": "cleaved PARP positive nuclei fraction", "setting": "WM3619", "value": 77.5, "unit": "%"}, {"measurement": "cleaved PARP positive nuclei fraction", "setting": "WM451Lu", "value": 73.7, "unit": "%"}]}, {"compound": "CC(=O)c1c(C)c2cnc(Nc3ccc(N4CCNCC4)cn3)nc2n(C2CCCC2)c1=O", "note": "[palbociclib] + Cn1cc(/C=C2\\C(=O)Nc3cccnc32)c2ccccc21 [GW441756] (first compound 0.04 µM, partner dose 0.4 µM)", "values": [{"measurement": "cleaved PARP positive nuclei fraction", "setting": "WM115", "value": 225, "unit": "%"}, {"measurement": "cleaved PARP positive nuclei fraction", "setting": "WM1716", "value": 88.7, "unit": "%"}, {"measurement": "cleaved PARP positive nuclei fraction", "setting": "WM1745", "value": 122, "unit": "%"}, {"measurement": "cleaved PARP positive nuclei fraction", "setting": "WM3526", "value": 99.1, "unit": "%"}, {"measurement": "cleaved PARP positive nuclei fraction", "setting": "WM3619", "value": 108, "unit": "%"}, {"measurement": "cleaved PARP positive nuclei fraction", "setting": "WM451Lu", "value": 41.9, "unit": "%"}]}]}
